Assay results from the supplement of paper PMC6078165.
The reference is the same well before dosing, and untreated signal decays as well.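 Fibroblast labels denote human fibroblasts, mainly primary ones from uterus (C12385, HUF), lung (H6013), bone (Hs27A), adrenal (HADF) and skin (WS1), plus mammary HMF and breast cancer-associated Hs343T. Cancer cells are basal-like or mesenchymal-like triple-negative breast cancer lines. A hit is a response shift exceeding 3x replicate standard deviation. The tissue of the other fibroblasts is not given here.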

System: Hs578T
Assay: relative JC-1 red fluorescence (viability) vs pre-drug, coculture with fibroblast (fraction); higher = more viable cancer cells
Protocol: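 JC-1 labelled TNBC cells cocultured 1:1 (1,500 cells each) with CellTrace Violet stained primary or stromal fibroblasts in 384-well plates in FluoroBrite medium, treated with one of 42 anticancer drugs at 0.1, 1, 10 or 100 uM. JC-1 red fluorescence (mitochondrial integrity in cancer cells only) was read by plate reader every 8 h for 72 h. Values are normalised to each well's pre-drug value. The stock of one drug was tenfold lower, so its dose labels may be too high.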

C=C1C[C@@H]2[C@H](CC[C@]3(C)C(=O)CC[C@@H]23)[C@@]2(C)C=CC(=O)C=C12 [Exemestane]
relative JC-1 red fluorescence
Conditions	8 h	16 h	24 h	32 h	40 h	48 h	56 h	64 h	72 h
0.1 µM	0.871	0.772	0.7248	0.703	0.638	0.599	0.569	0.531	0.517
1 µM	0.883	0.776	0.71	0.674	0.616	0.57	0.544	0.502	0.48

relative JC-1 red fluorescence
Conditions	8 h	16 h	24 h	32 h	40 h	48 h	56 h	64 h	72 h
0.1 µM, coculture fibroblast: C12385	0.832	0.724	0.647	0.555	0.486	0.444	0.408	0.399	0.396
0.1 µM, coculture fibroblast: H6013	0.9072	0.807	0.778	0.773	0.756	0.76	0.75	0.745	0.712
0.1 µM, coculture fibroblast: H6019	0.793	0.702	0.688	0.598	0.561	0.543	0.507	0.49	0.468
0.1 µM, coculture fibroblast: H6076	0.917	0.812	0.784	0.772	0.727	0.7276	0.7072	0.7045	0.7073
0.1 µM, coculture fibroblast: H6231	0.916	0.828	0.723	0.674	0.605	0.582	0.53	0.51	0.49
0.1 µM, coculture fibroblast: HADF	0.934	0.864	0.803	0.76	0.726	0.698	0.668	0.664	0.64
0.1 µM, coculture fibroblast: HCFa	0.893	0.78	0.712	0.656	0.599	0.572	0.533	0.515	0.477
0.1 µM, coculture fibroblast: HCPF	0.92473	0.836	0.799	0.776	0.722	0.699	0.67	0.633	0.611
0.1 µM, coculture fibroblast: HHSteC	0.92	0.803	0.751	0.70852	0.659	0.632	0.604	0.582	0.54
0.1 µM, coculture fibroblast: HMF	0.923	0.826	0.763	0.725	0.661	0.628	0.59	0.567	0.55
0.1 µM, coculture fibroblast: HPFa	0.949	0.885	0.805	0.759	0.701	0.659	0.615	0.586	0.5264
0.1 µM, coculture fibroblast: HUF	0.8568	0.766	0.7114	0.598	0.534	0.495	0.458	0.444	0.435
0.1 µM, coculture fibroblast: Hs27A	0.887	0.824	0.744	0.685	0.63	0.612	0.57	0.556	0.507
0.1 µM, coculture fibroblast: Hs343T	0.924	0.781	0.729	0.7087	0.636	0.597	0.554	0.53	0.519
0.1 µM, coculture fibroblast: WS1	0.84	0.706	0.647	0.547	0.477	0.444	0.406	0.402	0.4
1 µM, coculture fibroblast: C12385	0.835	0.697	0.711	0.628	0.5753	0.5492	0.525	0.53062	0.5354
1 µM, coculture fibroblast: H6013	0.865	0.7979	0.7619	0.725	0.681	0.667	0.641	0.631	0.601
1 µM, coculture fibroblast: H6019	0.823	0.7258	0.712	0.607	0.561	0.533	0.499	0.479	0.453
1 µM, coculture fibroblast: H6076	0.91	0.892	0.843	0.821	0.777	0.761	0.745	0.725	0.726
1 µM, coculture fibroblast: H6231	0.862	0.766	0.702	0.666	0.606	0.5793	0.5446	0.5214	0.515
1 µM, coculture fibroblast: HADF	0.901	0.826	0.75	0.682	0.619	0.582	0.538	0.524	0.494
1 µM, coculture fibroblast: HCFa	0.862	0.768	0.725	0.668	0.609	0.583	0.547	0.525	0.482
1 µM, coculture fibroblast: HCPF	0.911	0.833	0.788	0.754	0.69	0.667	0.652	0.614	0.595
1 µM, coculture fibroblast: HHSteC	0.916	0.838	0.791	0.748	0.706	0.673	0.646	0.622	0.579
1 µM, coculture fibroblast: HMF	0.859	0.762	0.711	0.692	0.636	0.614	0.5863	0.57	0.567
1 µM, coculture fibroblast: HPFa	0.951	0.869	0.789	0.713	0.649	0.606	0.553	0.522	0.467
1 µM, coculture fibroblast: HUF	0.855	0.754	0.695	0.599	0.526	0.482	0.442	0.413	0.401
1 µM, coculture fibroblast: Hs27A	0.876	0.819	0.79	0.764	0.716	0.702	0.672	0.668	0.616
1 µM, coculture fibroblast: Hs343T	0.9284	0.821	0.763	0.721	0.642	0.603	0.567	0.5316	0.5229
1 µM, coculture fibroblast: WS1	0.823	0.706	0.649	0.551	0.5	0.475	0.444	0.439	0.438
